Data from the supplement of paper PMC6289059.
“And” between values parts separate entries of the source, which are not always exact repeats. Equal values may be shown once. Some of the results follow. Repeats are few or missing, and single values can be far off.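 The assay uses human stem cell-derived hepatocyte-like cells whose DGUOK gene was disrupted by CRISPR, modeling liver mtDNA depletion syndrome. ATP signals were scored within each plate, and any drug with a score of at least 3 was called a primary hit.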 Residues, ends and D or L forms follow the SMILES beside them.

These compounds were tested on DGUOK Δ14/Δ5 iPSC-derived hepatocyte-like cells (SV20) (assay: ATP level (CellTiter-Glo luminescence) Z score relative to plate distribution, under 2-DG glycolysis block; higher = more cellular ATP (rescue of mitochondrial ATP production)). Conditions: 5 µM; treatment time: day 15 to day 20 of differentiation (5 days); 2-deoxy-D-glucose: 20 mM for 24 h before assay.
For `O=C(NCc1ccccc1)OCCO`, the ATP level was inactive: 1.08. `Cc1cc(=O)oc2cc(O)ccc12` was tested, and the ATP level was inactive: 2.95. `Cc1nc2ccccc2n1Cc1ccc(Cl)cc1` was tested, and the ATP level was inactive: -11.5. In the case of `Cn1c(=O)c2nc[nH]c2n(C)c1=O`, the ATP level is reported as inactive: 0.241. `c1ccc(C2CN3CCSC3=N2)cc1` (centres undefined) was tested, and the ATP level was inactive: -3.72. `COc1cc2cc3c4cc(OC)c(OC)cc4cc[n+]3c(C)c2cc1OC` was tested, and the ATP level was inactive: -6. For `CC(=O)O[C@H]1CC[C@]2(C)[C@H]3CC[C@]45OC(=O)[C@@]6(CC[C@@H](C)[C@H](C)[C@H]64)CC[C@@]5(C)[C@]3(C)CC[C@H]2C1(C)C`, the ATP level was inactive: -0.806. For `COc1cc(C(=O)O)cc(OC)c1O`, the ATP level was inactive: 1.42. For `Cc1scc2c1N(C(=O)CN1CCN(C)CC1)c1ccccc1NC2=O`, the ATP level was inactive: 2.42. `CO/N=C(\C(=O)N[C@@H]1C(=O)N2C(C(=O)O)=C(CSc3nc(=O)c(O)nn3C)CS[C@H]12)c1csc(N)n1` was tested, and the ATP level was inactive: 2.4. With `O=C(O)CS` the ATP level was inactive: -1.72. `NC1(C(=O)O)CCCC1` was tested, and the ATP level was inactive: -1.68. With `NCCCC[C@H](N[C@@H](CCc1ccccc1)C(=O)O)C(=O)N1CCC[C@H]1C(=O)O` the ATP level was inactive: 2.47. For `C[C@]12CCC(=O)C=C1CC[C@@H]1[C@@H]2[C@@H](O)C[C@@]2(C)[C@H]1CC[C@]2(O)C(=O)COC(=O)CCC(=O)O`, the ATP level was inactive: 1.92. `CC(C)(C)NC[C@H](O)COc1nsnc1N1CCOCC1` was tested, and the ATP level was inactive: -0.39. With `CCOC(=O)[C@H](CCc1ccccc1)N[C@H]1CCc2ccccc2N(CC(=O)O)C1=O` the ATP level was inactive: -0.996. `CC(C)CCC[C@@H](C)[C@H]1CC[C@H]2[C@@H]3CC[C@H]4C[C@H](O)CC[C@]4(C)[C@H]3CC[C@]12C` was tested, and the ATP level was inactive: 1.18. For `COC1=C(OC)C(=O)C(CCCCCCCCCCO)=C(C)C1=O`, the ATP level was inactive: -0.812. For `COc1cc(-c2coc3cc(O)c(OC)c(O)c3c2=O)cc(O)c1OC`, the ATP level was inactive: -1.28. `CCOC(=O)OC(C)OC(=O)[C@@H]1N2C(=O)[C@@H](NC(=O)[C@H](N)c3ccccc3)[C@H]2SC1(C)C` (some centres undefined) was tested, and the ATP level was active: 4.92. `CC(=O)OCC(=O)[C@@]12N=C(C)O[C@@H]1C[C@H]1[C@@H]3CCC4=CC(=O)C=C[C@]4(C)[C@H]3[C@@H](O)C[C@@]12C` was tested, and the ATP level was active: 3.09. For `C1CCN2C[C@@H]3C[C@H](CN4CCCC[C@@H]34)[C@H]2C1`, the ATP level was inactive: -2.37. For `COc1ccc(C(=O)/C=C/c2ccccc2)cc1`, the ATP level was inactive: -2.89. In the case of `Cc1nc2n(c(=O)c1CCN1CCC(c3noc4cc(F)ccc34)CC1)CCCC2`, the ATP level is reported as inactive: -4.23. With `CNCCC(Oc1ccc(C(F)(F)F)cc1)c1ccccc1` (centres undefined) the ATP level was inactive: -2.32. With `C=C1c2c(Cl)ccc(O)c2C(O)=C2C(=O)[C@]3(O)C(O)=C(C(N)=O)C(=O)[C@@H](N(C)C)[C@@H]3[C@@H](O)[C@H]12.O=C(O)c1cc(S(=O)(=O)O)ccc1O` the ATP level was inactive: -4.5. For `CC(=O)Nc1ccc(CC(=O)O)cc1`, the ATP level was inactive: -0.295. In the case of `C=C1C(=O)O[C@@H]2C[C@@]3(C)CCC[C@H](C)C3=C[C@H]12`, the ATP level is reported as inactive: -0.482. With `CCN1CC(CCN2CCOCC2)C(c2ccccc2)(c2ccccc2)C1=O` (centres undefined) the ATP level was inactive: 0.927. For `CCCCNC(=O)NS(=O)(=O)c1ccc(C)cc1`, the ATP level was inactive: 0.264. In the case of `O=C(O)c1cc(-c2ccc(F)cc2F)ccc1O`, the ATP level is reported as inactive: 0.762. In the case of `CC(=O)[C@H]1CC[C@H]2[C@@H]3C[C@H](C)C4=CC(=O)CC[C@]4(C)[C@H]3[C@@H](O)C[C@]12C`, the ATP level is reported as inactive: 0.517. With `CCOC(=O)OC(C)OC1=C(C(=O)Nc2ccccn2)N(C)S(=O)(=O)c2ccccc21` (centres undefined) the ATP level was inactive: 0.321. In the case of `COC(=O)c1c(C)cc(O)cc1O`, the ATP level is reported as inactive: -1.8. With `CCCCCCCCCCCCC[N+](C)(C)Cc1ccccc1` the ATP level was inactive: -11.7. For `O=S(=O)(O)CCS`, the ATP level was inactive: 2.38. `CCn1cc(C(=O)O)c(=O)c2cnc(N3CCCC3)nc21` was tested, and the ATP level was inactive: -7.58. For `CC(C)Nc1ncccn1`, the ATP level was inactive: 1.93. With `COc1ccc(C(=O)CC(=O)O)c2c1C=CC(C)(C)O2` the ATP level was inactive: 1.24. For `COC(=O)C[C@H]1C(C)(C)C(=O)[C@@H]2CC3=C4CC(=O)O[C@@H](c5ccoc5)[C@]4(C)CC[C@@H]3[C@@]1(C)C2=O`, the ATP level was inactive: -0.239. `CC(C)(c1ccc(O)cc1)c1ccc(O)cc1` was tested, and the ATP level was inactive: -2.09. `CC1(C)NC(=O)N(c2ccc([N+](=O)[O-])c(C(F)(F)F)c2)C1=O` was tested, and the ATP level was inactive: 2. In the case of `CCCCCCc1ccc(O)cc1O`, the ATP level is reported as inactive: 2.04. With `C[C@]12C=CC(=O)C=C1CC[C@@H]1[C@@H]2[C@@H](O)C[C@@]2(C)[C@H]1CC[C@]2(O)C(=O)COC(=O)CCC(=O)O` the ATP level was inactive: 2.11. With `COC(=O)[C@@H]1[C@H]2C[C@H]3c4[nH]c5ccccc5c4CCN3C[C@@H]2CC[C@@H]1O` the ATP level was inactive: 0.298. For `C=C(C)[C@@H]1CC=C(C(=O)O)CC1`, the ATP level was inactive: -0.361. `N#C[C@@H]1C[C@@H]2C[C@@H]2N1C(=O)[C@@H](N)C12CC3CC(CC(O)(C3)C1)C2` was tested, and the ATP level was inactive: 0.655. `CCS(=O)(=O)CCn1c([N+](=O)[O-])cnc1C` was tested, and the ATP level was inactive: 0.514. In the case of `O=C1CCc2cc(OCCCCc3nnnn3C3CCCCC3)ccc2N1`, the ATP level is reported as inactive: 0.514. `COc1cc(OC)c2c(c1)OC(c1ccccc1)CC2=O` (centres undefined) was tested, and the ATP level was inactive: 0.767. With `CCCCOc1cc(C(=O)NCCN(CC)CC)c2ccccc2n1` the ATP level was inactive: -3.77. For `CC[C@H]1OC(=O)[C@H](C)C(=O)[C@H](C)[C@@H](O[C@@H]2O[C@H](C)C[C@H](N(C)C)[C@H]2O)[C@](C)(OC)C[C@@H](C)C(=O)[C@H](C)[C@H]2N(CCCCn3cnc(-c4cccnc4)c3)C(=O)O[C@]12C`, the ATP level was inactive: -0.249. `C[C@@]12C[C@@]3(O)O[C@@H](O1)[C@]1(COC(=O)c4ccccc4)[C@H]3C[C@@]12O[C@@H]1O[C@H](CO)[C@@H](O)[C@H](O)[C@H]1O` was tested, and the ATP level was inactive: 0.67. `CCC1=C(C)CN(C(=O)NCCc2ccc(S(=O)(=O)NC(=O)N[C@H]3CC[C@H](C)CC3)cc2)C1=O` was tested, and the ATP level was inactive: -0.274. With `Sc1nc2ccccc2s1` the ATP level was inactive: 0.638. In the case of `COc1ccc2cc1Oc1ccc(cc1)C[C@H]1c3cc(c(OC)cc3CCN1C)Oc1c(OC)c(OC)cc3c1[C@H](C2)N(C)CC3`, the ATP level is reported as inactive: -0.815. In the case of `CCOCCOc1ccccc1C(N)=O`, the ATP level is reported as inactive: -0.0153. `C[C@]12CC[C@@H]3c4ccc(O)cc4CC[C@H]3[C@@H]1CCC2=O` was tested, and the ATP level was inactive: -0.032. `CC(=O)c1c(O)c(C)c(O)c2c1OC1=CC(=O)C(C(C)=O)C(=O)C12C` (centres undefined) was tested, and the ATP level was inactive: -10.3. In the case of `O=C1OC2(c3ccc(O)cc3Oc3cc(O)ccc32)c2ccccc21`, the ATP level is reported as inactive: 1.03. With `CC(=O)OCC1=C(C(=O)O)N2C(=O)[C@@H](NC(=O)CSc3ccncc3)[C@H]2SC1` the ATP level was inactive: 0.872. With `COc1cnc(NS(=O)(=O)c2ccc(N)cc2)nc1` the ATP level was inactive: -13.3. `O=C(O)CCC(=O)Nc1ccc(S(=O)(=O)Nc2nccs2)cc1` was tested, and the ATP level was inactive: 1.26. `Cc1cccc(CN2CCN(C(c3ccccc3)c3ccc(Cl)cc3)CC2)c1` (centres undefined) was tested, and the ATP level was inactive: 0.576. In the case of `COc1ccccc1O`, the ATP level is reported as inactive: 0.423. `O=NN(CCCl)C(=O)NC1CCCCC1` was tested, and the ATP level was inactive: 1.07. `O=C(O)[C@@H]1CCCN1` was tested, and the ATP level was inactive: 1.74. In the case of `CC(=O)OCC(=O)[C@@]1(O)CC[C@H]2[C@@H]3C[C@H](C)C4=CC(=O)C=C[C@]4(C)[C@H]3[C@@H](O)C[C@@]21C` [6alpha-METHYLPREDNISOLONE ACETATE], the ATP level is reported as inactive: 1.18. For `CCOC(=O)C1=C[C@]2(CC)CCCN3CCc4c(n1c1ccccc41)[C@@H]32`, the ATP level was inactive: 2.29. In the case of `COc1ccc(-c2cc(=O)c3c(O)cc(O[C@@H]4O[C@H](CO[C@@H]5O[C@@H](C)[C@H](O)[C@@H](O)[C@H]5O)[C@@H](O)[C@H](O)[C@H]4O)cc3o2)cc1O`, the ATP level is reported as inactive: -3.79. For `CC(C)CC(NC(=O)CN)C(=O)NC(Cc1ccccc1)C(=O)O` (stereo not drawn) (H-Gly-Leu-Phe-OH; configuration not given here), the ATP level was inactive: -1.38. For `O=c1c2cc(O)c(O)cc2oc2cc(O)c([C@@H]3O[C@H](CO)[C@@H](O)[C@H](O)[C@H]3O)c(O)c12`, the ATP level was inactive: 1.98. In the case of `C/C=N/N(C)C=O`, the ATP level is reported as inactive: -3.51. `C=C1C[C@]23C[C@@]1(O)CC[C@H]2[C@@]12C=C[C@H](O)[C@@](C)(C(=O)O1)[C@H]2[C@@H]3C(=O)O` was tested, and the ATP level was inactive: -1.62. `c1ccc2[nH]c(-c3cscn3)nc2c1` was tested, and the ATP level was inactive: -0.568. `OC[C@@H](O)[C@@H](O[C@@H]1O[C@H](CO)[C@H](O)[C@H](O)[C@H]1O)[C@H](O)[C@@H](O)CO` was tested, and the ATP level was inactive: 0.557 and inactive: 1.85. `CN1[C@@H](CC(=O)c2ccccc2)CCC[C@H]1C[C@H](O)c1ccccc1` was tested, and the ATP level was inactive: -0.813. `COc1ccc(C(=O)c2ccc(C)cc2)c(O)c1` was tested, and the ATP level was inactive: 0.0376. `NC(=O)NC(=O)Cc1ccccc1` was tested, and the ATP level was inactive: 1.13. With `CCOC(=O)[C@H](CCc1ccccc1)N[C@@H](C)C(=O)N1CCC[C@H]1C(=O)O` the ATP level was inactive: 2.36. For `CO/N=C(\C(=O)N[C@@H]1C(=O)N2C(C(=O)O)=C(C[N+]3(C)CCCC3)CS[C@H]12)c1csc(N)n1`, the ATP level was inactive: 1.99. For `CC(=O)N[C@@H](Cc1ccccc1)C(=O)O`, the ATP level was inactive: 0.58. `Cn1nnnc1SCC1=C(C(=O)O)N2C(=O)[C@@H](NC(=O)[C@H](OC=O)c3ccccc3)[C@H]2SC1` was tested, and the ATP level was inactive: 1.54. In the case of `OCC(O)C(O)C(O)C(O)C(O)CO` (centres undefined), the ATP level is reported as inactive: -1.16.
